The other results are listed elsewhere or left out.
What follows are targets tested with c1cn2cc(-c3ccc4cn[nH]c4c3)nc(Nc3ccc(N4CCOCC4)cc3)c2n1 [entospletinib] (assay: log2 fold change, soluble protein after heating vs DMSO (PISA); higher = thermal stabilisation; K562 cells, 10 uM, 30 min; active = over 0.2 and 3.5 SD of the protein, either way, in both replicates (recomputed)).
Procedure, shortened: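 K562 cells at 2×10^6 cells/mL were treated with 10 μM compound for 30 min. Aliquots were heated for 3 min across 48°C-58°C, pooled, and extracted in PBS with 0.5% NP-40 at 4°C; soluble protein was the supernatant after 21,000xg for 90 min. Soluble protein was quantified by TMTpro 16plex LC-MS/MS with channel sums equalised, and reported as log2 fold change in thermal stability against DMSO controls, with values from duplicates.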

The chains behind the UniProt entries cited, without tags or fusion partners. Where a name states a change or a piece, a line headed by the entry shows the natural chain unless it says otherwise.
UniProt Q8WUE5: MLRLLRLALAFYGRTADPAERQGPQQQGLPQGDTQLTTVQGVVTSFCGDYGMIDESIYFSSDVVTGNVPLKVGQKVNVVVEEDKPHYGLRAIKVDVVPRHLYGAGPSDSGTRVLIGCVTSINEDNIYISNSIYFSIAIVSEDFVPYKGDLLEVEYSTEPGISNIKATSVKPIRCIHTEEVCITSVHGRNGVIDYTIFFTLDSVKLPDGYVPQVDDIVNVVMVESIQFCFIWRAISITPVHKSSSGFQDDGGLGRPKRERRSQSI
UniProt Q6ZWL3: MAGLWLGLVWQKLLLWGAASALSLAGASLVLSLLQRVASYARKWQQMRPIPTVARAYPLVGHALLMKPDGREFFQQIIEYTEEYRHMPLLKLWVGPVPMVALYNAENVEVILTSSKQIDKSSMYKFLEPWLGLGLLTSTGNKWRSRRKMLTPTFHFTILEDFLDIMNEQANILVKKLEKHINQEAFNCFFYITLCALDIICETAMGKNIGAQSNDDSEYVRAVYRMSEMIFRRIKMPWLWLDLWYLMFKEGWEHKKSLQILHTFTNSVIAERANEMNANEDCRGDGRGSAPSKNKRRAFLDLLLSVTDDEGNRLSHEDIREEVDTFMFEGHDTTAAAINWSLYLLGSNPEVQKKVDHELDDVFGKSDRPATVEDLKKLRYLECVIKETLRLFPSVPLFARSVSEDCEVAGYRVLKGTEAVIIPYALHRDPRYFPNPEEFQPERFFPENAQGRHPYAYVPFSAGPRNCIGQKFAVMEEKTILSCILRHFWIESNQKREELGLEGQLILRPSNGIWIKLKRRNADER
UniProt P08574: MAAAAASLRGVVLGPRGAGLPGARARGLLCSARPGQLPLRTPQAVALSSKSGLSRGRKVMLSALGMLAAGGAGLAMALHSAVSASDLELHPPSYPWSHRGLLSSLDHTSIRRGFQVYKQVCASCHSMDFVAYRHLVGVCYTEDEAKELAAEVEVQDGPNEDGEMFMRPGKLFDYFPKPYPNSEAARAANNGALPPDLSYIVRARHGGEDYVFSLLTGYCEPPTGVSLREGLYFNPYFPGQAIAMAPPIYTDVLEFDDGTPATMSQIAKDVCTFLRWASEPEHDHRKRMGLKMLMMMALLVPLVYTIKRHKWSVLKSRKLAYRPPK
UniProt P21291: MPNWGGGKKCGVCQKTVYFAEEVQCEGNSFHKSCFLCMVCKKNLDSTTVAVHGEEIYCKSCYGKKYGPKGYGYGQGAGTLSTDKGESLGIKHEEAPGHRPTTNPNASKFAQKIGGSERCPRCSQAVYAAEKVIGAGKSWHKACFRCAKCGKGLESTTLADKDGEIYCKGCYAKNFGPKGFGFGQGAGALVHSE
UniProt Q9BQA9: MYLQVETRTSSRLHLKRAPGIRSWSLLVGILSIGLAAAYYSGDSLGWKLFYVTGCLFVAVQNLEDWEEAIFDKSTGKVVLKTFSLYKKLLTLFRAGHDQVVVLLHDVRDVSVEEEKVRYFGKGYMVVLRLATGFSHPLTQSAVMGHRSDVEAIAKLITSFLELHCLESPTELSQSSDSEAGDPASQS
UniProt Q13619, whole entry, looked up: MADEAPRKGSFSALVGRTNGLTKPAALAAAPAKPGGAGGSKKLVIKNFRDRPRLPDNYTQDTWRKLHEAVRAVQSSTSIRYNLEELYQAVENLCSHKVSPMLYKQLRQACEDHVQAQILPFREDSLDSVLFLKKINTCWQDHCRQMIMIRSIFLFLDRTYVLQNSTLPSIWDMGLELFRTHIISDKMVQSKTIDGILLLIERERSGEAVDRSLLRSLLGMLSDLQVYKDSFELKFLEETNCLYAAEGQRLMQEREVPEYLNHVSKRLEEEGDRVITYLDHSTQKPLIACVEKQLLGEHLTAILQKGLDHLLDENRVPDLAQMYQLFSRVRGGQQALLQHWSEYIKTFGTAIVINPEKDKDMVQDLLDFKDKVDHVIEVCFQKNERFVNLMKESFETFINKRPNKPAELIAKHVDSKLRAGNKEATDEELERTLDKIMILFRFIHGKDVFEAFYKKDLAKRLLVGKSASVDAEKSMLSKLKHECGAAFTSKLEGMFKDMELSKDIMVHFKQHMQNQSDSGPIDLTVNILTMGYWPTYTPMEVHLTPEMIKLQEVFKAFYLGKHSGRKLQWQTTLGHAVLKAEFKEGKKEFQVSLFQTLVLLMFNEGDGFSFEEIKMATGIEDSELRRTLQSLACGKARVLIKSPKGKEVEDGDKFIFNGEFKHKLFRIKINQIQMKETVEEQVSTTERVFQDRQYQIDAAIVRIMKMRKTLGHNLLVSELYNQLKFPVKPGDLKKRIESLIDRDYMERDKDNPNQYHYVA
UniProt Q8TB03: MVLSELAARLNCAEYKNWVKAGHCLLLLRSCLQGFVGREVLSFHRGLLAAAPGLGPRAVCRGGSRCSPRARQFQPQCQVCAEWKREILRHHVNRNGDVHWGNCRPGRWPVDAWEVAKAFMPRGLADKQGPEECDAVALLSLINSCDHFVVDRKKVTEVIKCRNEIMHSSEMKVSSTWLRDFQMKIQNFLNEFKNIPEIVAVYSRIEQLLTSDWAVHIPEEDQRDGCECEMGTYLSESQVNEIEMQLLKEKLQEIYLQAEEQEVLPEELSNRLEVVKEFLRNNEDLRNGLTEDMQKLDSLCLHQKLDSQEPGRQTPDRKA
UniProt P32929, whole entry, looked up: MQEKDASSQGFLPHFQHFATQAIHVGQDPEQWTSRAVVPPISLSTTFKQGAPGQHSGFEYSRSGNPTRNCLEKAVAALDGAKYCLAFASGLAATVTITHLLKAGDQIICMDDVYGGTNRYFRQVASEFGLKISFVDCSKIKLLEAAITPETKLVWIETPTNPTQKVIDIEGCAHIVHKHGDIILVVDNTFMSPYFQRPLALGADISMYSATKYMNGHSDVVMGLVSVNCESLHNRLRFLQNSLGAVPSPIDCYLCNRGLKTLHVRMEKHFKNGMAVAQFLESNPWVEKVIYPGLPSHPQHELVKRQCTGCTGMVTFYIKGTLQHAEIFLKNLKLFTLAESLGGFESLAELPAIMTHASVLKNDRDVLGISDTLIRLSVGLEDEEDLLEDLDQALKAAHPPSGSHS
UniProt P0DMU8: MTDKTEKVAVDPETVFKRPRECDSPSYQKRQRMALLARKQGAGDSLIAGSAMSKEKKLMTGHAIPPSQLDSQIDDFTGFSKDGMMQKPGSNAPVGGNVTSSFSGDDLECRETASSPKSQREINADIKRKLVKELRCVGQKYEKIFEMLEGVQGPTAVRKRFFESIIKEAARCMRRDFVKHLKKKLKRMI
UniProt Q9Y4B6: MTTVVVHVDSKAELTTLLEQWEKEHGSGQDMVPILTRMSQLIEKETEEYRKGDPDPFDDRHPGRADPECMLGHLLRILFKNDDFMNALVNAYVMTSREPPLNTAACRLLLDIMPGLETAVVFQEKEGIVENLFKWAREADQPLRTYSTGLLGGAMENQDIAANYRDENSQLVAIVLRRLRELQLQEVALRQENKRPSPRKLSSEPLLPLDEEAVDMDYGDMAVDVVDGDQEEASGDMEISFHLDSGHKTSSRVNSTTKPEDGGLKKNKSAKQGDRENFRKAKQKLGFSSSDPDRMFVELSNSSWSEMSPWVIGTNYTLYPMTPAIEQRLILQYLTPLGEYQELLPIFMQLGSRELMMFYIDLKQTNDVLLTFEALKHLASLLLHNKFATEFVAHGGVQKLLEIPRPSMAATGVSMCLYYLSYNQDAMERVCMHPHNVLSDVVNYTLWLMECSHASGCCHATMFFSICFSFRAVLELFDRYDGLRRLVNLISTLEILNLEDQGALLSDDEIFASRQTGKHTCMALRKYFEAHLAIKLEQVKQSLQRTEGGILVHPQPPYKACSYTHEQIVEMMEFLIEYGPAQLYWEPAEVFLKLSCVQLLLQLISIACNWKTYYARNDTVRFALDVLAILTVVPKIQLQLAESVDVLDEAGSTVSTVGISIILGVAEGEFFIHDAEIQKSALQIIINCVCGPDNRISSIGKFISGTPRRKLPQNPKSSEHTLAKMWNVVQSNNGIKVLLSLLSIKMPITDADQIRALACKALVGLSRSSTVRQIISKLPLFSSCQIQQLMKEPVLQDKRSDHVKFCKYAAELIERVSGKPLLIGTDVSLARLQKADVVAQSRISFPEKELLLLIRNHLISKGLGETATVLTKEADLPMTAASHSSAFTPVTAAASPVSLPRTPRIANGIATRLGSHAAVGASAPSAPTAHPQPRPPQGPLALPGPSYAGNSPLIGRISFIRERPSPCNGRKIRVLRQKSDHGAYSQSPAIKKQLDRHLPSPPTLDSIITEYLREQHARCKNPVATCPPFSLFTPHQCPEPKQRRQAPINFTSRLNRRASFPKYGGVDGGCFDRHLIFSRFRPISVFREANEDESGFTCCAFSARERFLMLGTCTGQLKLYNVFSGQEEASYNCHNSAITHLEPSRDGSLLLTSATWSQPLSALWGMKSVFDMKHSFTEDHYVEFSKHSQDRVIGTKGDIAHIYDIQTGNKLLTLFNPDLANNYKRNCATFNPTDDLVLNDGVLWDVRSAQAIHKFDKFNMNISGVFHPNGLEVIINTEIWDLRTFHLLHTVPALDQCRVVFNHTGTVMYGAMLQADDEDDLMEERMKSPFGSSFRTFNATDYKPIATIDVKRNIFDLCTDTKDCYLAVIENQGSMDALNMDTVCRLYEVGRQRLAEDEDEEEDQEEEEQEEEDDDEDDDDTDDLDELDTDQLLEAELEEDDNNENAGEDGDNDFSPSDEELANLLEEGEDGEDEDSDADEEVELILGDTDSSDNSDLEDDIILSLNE
UniProt O60716: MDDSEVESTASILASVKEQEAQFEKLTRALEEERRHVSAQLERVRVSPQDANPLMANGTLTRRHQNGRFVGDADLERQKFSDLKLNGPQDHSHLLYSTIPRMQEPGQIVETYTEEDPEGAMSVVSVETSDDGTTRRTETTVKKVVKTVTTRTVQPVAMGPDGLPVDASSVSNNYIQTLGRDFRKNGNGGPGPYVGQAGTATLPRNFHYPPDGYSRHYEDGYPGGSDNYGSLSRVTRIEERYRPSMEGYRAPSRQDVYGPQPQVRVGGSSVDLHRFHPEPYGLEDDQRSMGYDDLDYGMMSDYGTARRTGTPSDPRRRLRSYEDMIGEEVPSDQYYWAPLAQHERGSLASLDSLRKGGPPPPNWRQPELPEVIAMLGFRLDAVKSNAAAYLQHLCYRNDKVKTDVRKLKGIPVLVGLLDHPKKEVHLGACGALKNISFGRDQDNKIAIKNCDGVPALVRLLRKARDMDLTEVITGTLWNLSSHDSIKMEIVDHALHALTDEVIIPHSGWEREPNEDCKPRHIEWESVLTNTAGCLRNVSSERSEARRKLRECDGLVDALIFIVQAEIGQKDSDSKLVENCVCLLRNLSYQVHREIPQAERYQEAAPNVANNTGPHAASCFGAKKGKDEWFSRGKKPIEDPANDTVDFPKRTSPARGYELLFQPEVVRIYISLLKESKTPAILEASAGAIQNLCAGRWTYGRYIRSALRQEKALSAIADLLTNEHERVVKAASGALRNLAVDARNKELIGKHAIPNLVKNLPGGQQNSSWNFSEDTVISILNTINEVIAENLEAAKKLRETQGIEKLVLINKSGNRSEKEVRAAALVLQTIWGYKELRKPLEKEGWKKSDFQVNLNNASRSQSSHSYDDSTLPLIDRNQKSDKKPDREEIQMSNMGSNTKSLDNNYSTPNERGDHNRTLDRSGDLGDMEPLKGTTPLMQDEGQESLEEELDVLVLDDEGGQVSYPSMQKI
UniProt P0DMU9: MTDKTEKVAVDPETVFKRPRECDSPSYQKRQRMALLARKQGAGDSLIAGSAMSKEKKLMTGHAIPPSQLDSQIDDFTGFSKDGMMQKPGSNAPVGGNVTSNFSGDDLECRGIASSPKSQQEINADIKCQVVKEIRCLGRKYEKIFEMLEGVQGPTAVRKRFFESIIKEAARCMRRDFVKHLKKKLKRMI
UniProt P04080: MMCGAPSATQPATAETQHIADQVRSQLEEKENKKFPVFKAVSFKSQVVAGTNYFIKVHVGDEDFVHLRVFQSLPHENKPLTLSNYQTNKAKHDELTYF
UniProt Q9BTE1, whole entry, looked up: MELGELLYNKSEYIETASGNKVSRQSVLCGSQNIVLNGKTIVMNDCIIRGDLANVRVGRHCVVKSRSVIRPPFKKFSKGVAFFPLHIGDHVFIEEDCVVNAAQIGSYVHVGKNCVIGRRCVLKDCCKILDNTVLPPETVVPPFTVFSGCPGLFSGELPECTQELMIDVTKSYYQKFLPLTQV
UniProt Q8WVC6: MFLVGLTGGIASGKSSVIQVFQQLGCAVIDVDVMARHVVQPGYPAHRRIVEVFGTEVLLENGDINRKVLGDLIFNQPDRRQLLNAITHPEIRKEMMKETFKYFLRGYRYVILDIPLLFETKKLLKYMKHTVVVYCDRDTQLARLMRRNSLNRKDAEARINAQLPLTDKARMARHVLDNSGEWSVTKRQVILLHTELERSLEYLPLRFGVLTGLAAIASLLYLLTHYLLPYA

log2 fold change, inactive:
CT55 (UniProt Q8WUE5) -0.005
CYP4V2 (UniProt Q6ZWL3) 0.038
CYC1 (UniProt P08574) 0.022
DAZAP1 (UniProt Q96EP5) 0.071
CXorf56 (UniProt Q9H5V9) -0.026
CSRP1 (UniProt P21291) -0.03
CYB5B, A0A499FJ32 0.055
CYBC1 (UniProt Q9BQA9) -0.106
CTNS isoform 2 (UniProt O60931) 0.068
CUL4A (UniProt Q13619) -0.057
CXorf38 (UniProt Q8TB03) -0.041
CTH (UniProt P32929) -0.026
DAP3 (UniProt P51398) 0.058
CT45A5 (UniProt P0DMU8) -0.004
CYB5R2 (UniProt Q6BCY4) -0.004
DARS (UniProt P14868) 0.027
DCAF1 (UniProt Q9Y4B6) 0.022
DCAF17 (UniProt Q5H9S7) -0.036
CTNND1 (UniProt O60716) 0.166
DCAF11 (UniProt Q8TEB1) 0.007
CT45A10 (UniProt P0DMU9) 0.051
CSTB (UniProt P04080) -0.02
CTBP1 (UniProt Q13363) -0.038
DCTN5 (UniProt Q9BTE1) 0.055
CT47A1 (UniProt Q5JQC4) 0.03
CYCS (UniProt P99999) 0.014
DCAKD (UniProt Q8WVC6) 0.036
DCTD isoform 2 (UniProt P32321) 0.044
CUL4B (UniProt K4DI93) -0.012

Fetched one by one from the entries so far, 2 records:
log2 fold change, inactive:
DCTN5 (UniProt Q9BTE1) 0.055
CYCS (UniProt P99999) 0.014
